# Measurements: the supplement of paper PMC11732987, “Enantioselective OTUD7B fragment discovery through chemoproteomics screening and high-throughput optimisation” (Communications Chemistry, 2025)
# Sequences of proteins named here, by UniProt entry; tags and fusion partners are left off. A change or cut given only in a name is not applied to a line headed by its entry. Residues count along the entry.
# UniProt P49137, 213-239: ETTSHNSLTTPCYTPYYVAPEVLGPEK
# UniProt Q9UDY8, 311-341: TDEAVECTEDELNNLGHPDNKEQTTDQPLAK
# UniProt Q8IVS2: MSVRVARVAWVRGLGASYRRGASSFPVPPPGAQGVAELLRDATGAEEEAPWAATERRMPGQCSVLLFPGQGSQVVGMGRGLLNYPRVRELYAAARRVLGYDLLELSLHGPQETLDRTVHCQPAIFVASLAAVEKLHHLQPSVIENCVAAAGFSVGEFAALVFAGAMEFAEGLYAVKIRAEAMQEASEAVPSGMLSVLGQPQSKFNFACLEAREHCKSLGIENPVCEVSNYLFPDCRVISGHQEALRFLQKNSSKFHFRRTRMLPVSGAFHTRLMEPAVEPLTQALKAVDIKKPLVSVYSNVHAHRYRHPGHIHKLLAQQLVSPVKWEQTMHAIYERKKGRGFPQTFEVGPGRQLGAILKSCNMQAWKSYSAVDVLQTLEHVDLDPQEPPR
# UniProt Q96AG4: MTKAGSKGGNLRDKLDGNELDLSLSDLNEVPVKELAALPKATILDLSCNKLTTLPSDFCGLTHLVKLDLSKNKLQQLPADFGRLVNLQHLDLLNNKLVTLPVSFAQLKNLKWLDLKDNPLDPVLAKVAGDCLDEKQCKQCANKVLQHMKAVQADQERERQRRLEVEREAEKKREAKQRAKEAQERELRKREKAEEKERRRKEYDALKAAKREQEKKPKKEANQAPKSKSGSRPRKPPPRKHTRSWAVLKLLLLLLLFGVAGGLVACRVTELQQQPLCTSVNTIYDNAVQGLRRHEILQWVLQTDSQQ
# UniProt P20645: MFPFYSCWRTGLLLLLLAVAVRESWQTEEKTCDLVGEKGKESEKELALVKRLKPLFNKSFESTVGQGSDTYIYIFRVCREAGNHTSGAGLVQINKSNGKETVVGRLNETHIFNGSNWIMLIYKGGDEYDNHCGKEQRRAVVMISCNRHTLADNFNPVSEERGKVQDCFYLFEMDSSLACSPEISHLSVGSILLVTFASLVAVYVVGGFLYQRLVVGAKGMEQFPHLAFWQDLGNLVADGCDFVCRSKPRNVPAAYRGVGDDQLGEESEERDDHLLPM
# UniProt Q16644, 193-218: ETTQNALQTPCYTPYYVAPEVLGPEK
# UniProt Q9BX40: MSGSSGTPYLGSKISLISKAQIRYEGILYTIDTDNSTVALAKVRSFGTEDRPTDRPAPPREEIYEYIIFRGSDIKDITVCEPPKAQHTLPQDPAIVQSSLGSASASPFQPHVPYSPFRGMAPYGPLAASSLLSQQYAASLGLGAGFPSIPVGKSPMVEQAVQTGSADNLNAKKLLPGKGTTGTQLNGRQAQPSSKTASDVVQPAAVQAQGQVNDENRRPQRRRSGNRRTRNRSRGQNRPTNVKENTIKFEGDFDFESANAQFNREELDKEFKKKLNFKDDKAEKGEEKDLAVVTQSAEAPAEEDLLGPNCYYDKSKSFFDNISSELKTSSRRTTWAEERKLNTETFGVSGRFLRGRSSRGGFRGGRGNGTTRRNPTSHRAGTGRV
# UniProt O94822: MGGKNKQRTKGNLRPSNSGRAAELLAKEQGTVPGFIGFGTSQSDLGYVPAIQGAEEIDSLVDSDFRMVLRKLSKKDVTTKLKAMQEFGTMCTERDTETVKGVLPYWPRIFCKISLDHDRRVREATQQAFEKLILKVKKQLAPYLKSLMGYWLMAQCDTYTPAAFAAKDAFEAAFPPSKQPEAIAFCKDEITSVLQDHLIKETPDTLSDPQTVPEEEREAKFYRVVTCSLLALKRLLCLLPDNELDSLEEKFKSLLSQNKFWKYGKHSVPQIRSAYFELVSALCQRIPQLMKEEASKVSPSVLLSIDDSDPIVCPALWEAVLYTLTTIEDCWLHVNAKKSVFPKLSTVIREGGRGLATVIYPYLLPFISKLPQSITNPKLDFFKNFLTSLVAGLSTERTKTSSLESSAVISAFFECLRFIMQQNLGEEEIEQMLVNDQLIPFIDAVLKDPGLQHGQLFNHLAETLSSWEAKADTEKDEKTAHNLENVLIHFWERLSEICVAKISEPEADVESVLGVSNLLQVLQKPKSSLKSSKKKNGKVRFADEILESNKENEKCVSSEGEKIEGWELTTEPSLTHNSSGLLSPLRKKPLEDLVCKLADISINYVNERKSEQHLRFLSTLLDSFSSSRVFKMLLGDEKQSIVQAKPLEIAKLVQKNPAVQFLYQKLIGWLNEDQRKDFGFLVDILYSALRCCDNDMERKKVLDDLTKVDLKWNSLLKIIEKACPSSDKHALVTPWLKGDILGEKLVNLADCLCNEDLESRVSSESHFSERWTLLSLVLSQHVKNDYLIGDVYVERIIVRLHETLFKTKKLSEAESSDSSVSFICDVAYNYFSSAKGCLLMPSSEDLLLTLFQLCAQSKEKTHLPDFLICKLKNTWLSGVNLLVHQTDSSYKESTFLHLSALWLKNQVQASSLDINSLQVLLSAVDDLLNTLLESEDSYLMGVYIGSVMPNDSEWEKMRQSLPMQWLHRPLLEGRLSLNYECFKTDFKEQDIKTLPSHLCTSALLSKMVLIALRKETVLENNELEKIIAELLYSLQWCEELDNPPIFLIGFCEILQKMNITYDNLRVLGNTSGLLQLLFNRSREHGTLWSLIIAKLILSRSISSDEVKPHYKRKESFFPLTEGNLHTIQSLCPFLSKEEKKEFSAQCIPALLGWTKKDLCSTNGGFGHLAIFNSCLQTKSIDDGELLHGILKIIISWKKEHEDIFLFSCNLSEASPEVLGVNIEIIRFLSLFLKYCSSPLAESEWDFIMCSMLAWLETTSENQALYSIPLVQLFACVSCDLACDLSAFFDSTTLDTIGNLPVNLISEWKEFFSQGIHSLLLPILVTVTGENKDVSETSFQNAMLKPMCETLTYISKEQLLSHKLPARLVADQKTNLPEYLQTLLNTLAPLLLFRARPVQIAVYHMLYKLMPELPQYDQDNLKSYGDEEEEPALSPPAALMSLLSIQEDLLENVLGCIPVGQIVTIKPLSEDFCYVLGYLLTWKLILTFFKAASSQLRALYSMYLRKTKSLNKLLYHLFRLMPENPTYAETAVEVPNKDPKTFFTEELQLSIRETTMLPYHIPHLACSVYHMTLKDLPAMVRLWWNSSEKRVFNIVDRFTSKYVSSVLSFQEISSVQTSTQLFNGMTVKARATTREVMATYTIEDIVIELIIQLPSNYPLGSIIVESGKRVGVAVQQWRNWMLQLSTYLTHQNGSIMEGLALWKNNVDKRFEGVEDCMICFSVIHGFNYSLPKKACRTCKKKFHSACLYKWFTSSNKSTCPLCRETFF
# UniProt Q9BRK4: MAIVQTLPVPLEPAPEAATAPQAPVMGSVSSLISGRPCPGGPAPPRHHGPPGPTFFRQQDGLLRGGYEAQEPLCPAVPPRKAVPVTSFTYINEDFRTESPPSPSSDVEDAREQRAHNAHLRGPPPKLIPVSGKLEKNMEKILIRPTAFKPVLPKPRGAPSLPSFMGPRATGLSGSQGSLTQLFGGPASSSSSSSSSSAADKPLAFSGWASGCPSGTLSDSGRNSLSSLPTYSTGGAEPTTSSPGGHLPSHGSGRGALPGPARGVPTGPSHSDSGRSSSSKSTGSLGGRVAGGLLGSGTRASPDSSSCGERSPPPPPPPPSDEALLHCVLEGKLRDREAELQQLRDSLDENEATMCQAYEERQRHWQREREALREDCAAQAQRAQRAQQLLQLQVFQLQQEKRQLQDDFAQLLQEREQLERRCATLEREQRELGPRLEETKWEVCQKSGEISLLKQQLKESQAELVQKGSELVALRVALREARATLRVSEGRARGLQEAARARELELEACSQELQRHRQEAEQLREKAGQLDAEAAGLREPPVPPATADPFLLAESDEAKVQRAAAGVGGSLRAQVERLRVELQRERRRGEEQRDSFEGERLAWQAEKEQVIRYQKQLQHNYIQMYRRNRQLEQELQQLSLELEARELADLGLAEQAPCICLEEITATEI
# UniProt Q9Y6D9: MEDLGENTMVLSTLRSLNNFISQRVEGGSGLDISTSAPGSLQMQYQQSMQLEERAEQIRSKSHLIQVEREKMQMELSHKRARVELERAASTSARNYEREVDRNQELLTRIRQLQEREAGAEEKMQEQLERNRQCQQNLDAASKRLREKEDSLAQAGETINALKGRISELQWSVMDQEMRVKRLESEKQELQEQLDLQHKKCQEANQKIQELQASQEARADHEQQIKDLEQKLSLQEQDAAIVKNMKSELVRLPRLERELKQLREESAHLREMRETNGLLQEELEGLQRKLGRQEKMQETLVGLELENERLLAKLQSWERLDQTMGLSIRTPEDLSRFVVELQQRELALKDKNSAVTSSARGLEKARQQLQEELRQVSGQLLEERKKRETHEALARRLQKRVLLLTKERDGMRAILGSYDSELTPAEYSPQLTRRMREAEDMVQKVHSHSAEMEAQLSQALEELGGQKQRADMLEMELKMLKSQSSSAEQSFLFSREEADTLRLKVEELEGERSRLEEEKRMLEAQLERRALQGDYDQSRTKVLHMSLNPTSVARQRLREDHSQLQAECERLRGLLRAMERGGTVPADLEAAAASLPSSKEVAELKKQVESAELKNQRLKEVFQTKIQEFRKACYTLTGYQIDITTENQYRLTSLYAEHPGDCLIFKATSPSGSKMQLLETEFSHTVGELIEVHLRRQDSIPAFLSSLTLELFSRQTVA
# UniProt P07948: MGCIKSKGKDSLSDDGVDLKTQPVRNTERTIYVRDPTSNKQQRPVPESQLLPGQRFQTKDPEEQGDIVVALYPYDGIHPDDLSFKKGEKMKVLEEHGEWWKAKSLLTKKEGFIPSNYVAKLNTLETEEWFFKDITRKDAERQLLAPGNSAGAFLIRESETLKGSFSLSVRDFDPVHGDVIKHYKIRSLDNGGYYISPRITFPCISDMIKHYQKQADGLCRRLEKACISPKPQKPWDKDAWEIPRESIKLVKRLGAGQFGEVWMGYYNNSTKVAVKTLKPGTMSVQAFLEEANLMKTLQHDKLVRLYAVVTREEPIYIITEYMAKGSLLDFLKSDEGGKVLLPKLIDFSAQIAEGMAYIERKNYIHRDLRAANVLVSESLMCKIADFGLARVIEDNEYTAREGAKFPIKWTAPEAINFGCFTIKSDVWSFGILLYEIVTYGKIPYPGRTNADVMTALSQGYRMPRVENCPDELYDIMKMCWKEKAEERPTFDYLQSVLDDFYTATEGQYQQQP
# UniProt Q9Y2E5: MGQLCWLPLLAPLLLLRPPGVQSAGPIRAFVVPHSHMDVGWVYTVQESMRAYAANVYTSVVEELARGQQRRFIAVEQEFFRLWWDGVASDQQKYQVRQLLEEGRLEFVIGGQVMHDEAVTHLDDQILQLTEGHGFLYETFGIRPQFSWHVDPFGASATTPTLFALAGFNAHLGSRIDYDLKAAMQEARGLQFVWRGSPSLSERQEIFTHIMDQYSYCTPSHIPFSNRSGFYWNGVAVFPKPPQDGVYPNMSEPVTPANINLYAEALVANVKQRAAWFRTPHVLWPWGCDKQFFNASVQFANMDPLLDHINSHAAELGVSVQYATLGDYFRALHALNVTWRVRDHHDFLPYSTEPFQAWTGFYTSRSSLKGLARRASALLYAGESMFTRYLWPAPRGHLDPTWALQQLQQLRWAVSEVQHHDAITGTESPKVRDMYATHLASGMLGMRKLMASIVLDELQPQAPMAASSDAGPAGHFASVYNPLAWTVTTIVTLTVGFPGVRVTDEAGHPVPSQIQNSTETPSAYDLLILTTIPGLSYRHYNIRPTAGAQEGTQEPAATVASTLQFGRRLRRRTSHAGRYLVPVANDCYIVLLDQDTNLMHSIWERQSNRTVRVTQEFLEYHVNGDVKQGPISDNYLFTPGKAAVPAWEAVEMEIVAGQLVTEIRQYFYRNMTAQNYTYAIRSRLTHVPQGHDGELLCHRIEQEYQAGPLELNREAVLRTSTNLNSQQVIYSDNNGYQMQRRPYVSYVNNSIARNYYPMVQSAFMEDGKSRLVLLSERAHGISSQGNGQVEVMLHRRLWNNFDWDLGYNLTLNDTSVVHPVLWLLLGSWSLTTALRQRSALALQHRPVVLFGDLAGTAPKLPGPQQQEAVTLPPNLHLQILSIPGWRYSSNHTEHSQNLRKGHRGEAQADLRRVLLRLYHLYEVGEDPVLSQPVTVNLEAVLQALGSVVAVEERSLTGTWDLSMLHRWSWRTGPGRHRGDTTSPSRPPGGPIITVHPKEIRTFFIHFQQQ
# UniProt P45983: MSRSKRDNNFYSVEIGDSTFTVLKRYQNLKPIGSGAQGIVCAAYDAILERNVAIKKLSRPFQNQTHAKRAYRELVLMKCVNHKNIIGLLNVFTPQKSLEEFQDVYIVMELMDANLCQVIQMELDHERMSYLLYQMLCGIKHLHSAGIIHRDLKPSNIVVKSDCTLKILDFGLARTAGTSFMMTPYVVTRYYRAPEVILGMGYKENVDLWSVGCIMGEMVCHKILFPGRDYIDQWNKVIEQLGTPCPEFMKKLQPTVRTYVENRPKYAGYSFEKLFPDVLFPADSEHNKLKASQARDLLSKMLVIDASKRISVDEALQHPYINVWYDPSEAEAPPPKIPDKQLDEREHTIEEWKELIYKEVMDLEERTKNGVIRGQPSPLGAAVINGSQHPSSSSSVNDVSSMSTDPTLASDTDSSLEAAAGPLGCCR
# This is one part of the list. The data scatter; read single values as rough.
# Compound: ClCC(=O)N[C@H]1CCCc2ccccc12
# Assay: log2 mean competition ratio of IA-DTB cysteine labelling (DMSO/compound) (log2 ratio); higher = stronger cysteine engagement by compound
# Settings: 50 µM; treatment time: 4 h; cell line lysate: HEK293T
# Protocol: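 IA-DTB competitive cysteine chemoproteomics in HEK293T RIPA lysate. Lysates were treated with compound 29 or 30 at 50 or 200 µM for 4 h, then IA-DTB (500 µM, 1 h), trypsin-digested, NeutrAvidin-enriched and analysed by diaPASEF. Competition ratio = intensity DMSO / intensity compound (n=4 treated, n=64 DMSO); binding: mean log2 CR ≥ 1 and p ≤ 0.05 plus QC filters. Target is the cysteine site.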
row,Target,log2 mean competition ratio
1,MAPKAPK2 C224 (UniProt P49137),0.629
2,MALT1 C317 (UniProt Q9UDY8),0.311
3,MCAT C361 (UniProt Q8IVS2),0.083
4,LRRC59 C48 (UniProt Q96AG4),0.0946
5,M6PR C132 (UniProt P20645),-0.145
6,MAPKAPK3 C203 (UniProt Q16644),0.478
7,LSM14B C80 (UniProt Q9BX40),-0.334
8,LTN1 C595 (UniProt O94822),-0.236
9,LRRC8C C165,-0.406
10,LZTS2 C74 (UniProt Q9BRK4),0.802
11,MAP3K21 C281,0.142
12,LYAR C51 (UniProt Q9NX58),-0.15
13,MAP3K20 C571 (UniProt Q9NYL2),-0.19
14,LYPLA2 C56 (UniProt O95372),0.401
15,MARK2 C166,0.4
16,MAD1L1 C568 (UniProt Q9Y6D9),0.293
17,LYN C203 (UniProt P07948),-0.0692
18,LRRC8C C774,0.144
19,MAN2B2 C288 (UniProt Q9Y2E5),0.179
20,MAPK8 C245 (UniProt P45983),0.11

# Same assay, conditions: 200 µM; treatment time: 4 h; cell line lysate: HEK293T
row,Target,log2 mean competition ratio
1,MAPKAPK2 C224 (UniProt P49137),-0.359
2,MALT1 C317 (UniProt Q9UDY8),-0.325
3,MCAT C361 (UniProt Q8IVS2),0.0304
4,LRRC59 C48 (UniProt Q96AG4),0.23
5,M6PR C132 (UniProt P20645),0.264
6,MAPKAPK3 C203 (UniProt Q16644),-0.29
7,LSM14B C80 (UniProt Q9BX40),-0.03
8,LTN1 C595 (UniProt O94822),0.107
9,LRRC8C C165,-0.181
10,LZTS2 C74 (UniProt Q9BRK4),0.0624
11,MAP3K21 C281,0.101
12,LYAR C51 (UniProt Q9NX58),0.0037
13,MAP3K20 C571 (UniProt Q9NYL2),0.408
14,LYPLA2 C56 (UniProt O95372),-0.182
15,MARK2 C166,-0.0407
16,MAD1L1 C568 (UniProt Q9Y6D9),0.325
17,LYN C203 (UniProt P07948),0.128
18,LRRC8C C774,0.0185
19,MAN2B2 C288 (UniProt Q9Y2E5),-0.151
20,MAPK8 C245 (UniProt P45983),0.176
